Results reported in PubChem BioAssay AID2685 (National Center for Advancing Translational Sciences (NCATS), 2010).
The other results are listed elsewhere or left out. These are further read-outs of the screen, such as a control signal, another cell line or another target. No call is given for them. The list favours compounds with an active or inconclusive main result. Words in brackets tell the shape of the fitted curve; partial curves, single points and poor fits give uncertain potencies.

Assay: qHTS Assay for Lipid Storage Modulators in Drosophila S3 Cells;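 on cell number change: cells counted by Cell Tracker Red CMTPX staining in the red channel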
Details: BODIPY lipid droplet fluorescence, 18-24 h; for cell number change: measured here: cell count max response, cells fed with added oleic acid
Summary of the method: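 Drosophila S3 cells loaded with oleic acid (400 uM, as added) and compounds at several concentrations; lipid droplets imaged by 488-nm laser-scanning cytometry, 500–530 nm intensity and object ratio to cell channel. Percent activity normalized to 20 uM Triacsin C.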

[1] = measured here: cell number channel AC50, cells fed with added oleic acid
[2] = measured here: lipid fluorescence (Fed channel) AC50, cells fed with added oleic acid

CCOC(=O)C1=C(N)Oc2ccc3ccccc3c2C1c1cccc(O)c1 (stereo unspecified)
cell number change: -48.7%
AC50 [1]: 18.4 µM [falling, single point]
AC50 [2]: 23.1 µM [falling, single point]

Cn1c(N)c(C(=O)COC(=O)C2CCCCC2)c(=O)n(C)c1=O
cell number change: 0.831%
AC50 [2]: 6.51 µM [falling, single point]

O=C(CNC(=O)c1ccco1)NCC(=O)OCc1ccc(F)cc1
cell number change: -2.63%

COc1cccc(NC(=O)c2ccc(C(=O)c3ccccc3)o2)c1
cell number change: 2.26%
AC50 [1]: 0.731 µM [falling, full curve]
AC50 [2]: 0.58 µM [falling, full curve]

CCC(C)C(NC(=O)C1CCC(C)CC1)C(=O)NC(CCSC)C(=O)OC (stereo unspecified)
cell number change: -37.8%
AC50 [1]: 0.731 µM [falling, full curve]
AC50 [2]: 29.1 µM [falling, single point]

CCCCN(C(=O)c1ccc2c(c1)S(=O)(=O)N=C1CCCCCN12)c1c(N)n(CCCC)c(=O)[nH]c1=O
cell number change: -1.21%
AC50 [2]: 18.4 µM [rising, partial curve]

CN1C(=O)C(CC(=O)NCC2CCCCC2)SC1=Nc1ccccc1 (stereo unspecified)
cell number change: -13.3%
AC50 [2]: 32.6 µM [falling, single point]

COc1ccc(C2CC(c3ccc(OC)cc3)n3nc(NC(=O)c4cccs4)nc3N2)cc1 (stereo unspecified)
cell number change: 0.996%
AC50 [1]: 6.51 µM [rising, single point]
AC50 [2]: 6.51 µM [rising, partial curve]

O=C(NCCCSc1ccccc1)c1cc(Br)ccc1O
cell number change: 22.2%

Cc1[nH]c(=O)[nH]c1CN1CCCCC1
cell number change: 8.78%
AC50 [2]: 0.13 µM [rising, full curve, poor fit]

CCCn1nnnc1-c1ccc(Cl)cc1
cell number change: 6.64%
AC50 [2]: 3.66 µM [rising, full curve, poor fit]

C=CCOc1ccc(/C=C2/C(=O)ON=C2C)cc1OCC
cell number change: 34%
AC50 [1]: 9.2 µM [rising, partial curve, poor fit]

CCC1CCCCN1C(=O)COC(=O)c1cc(Br)ccc1Cl (stereo unspecified)
cell number change: 24.9%
AC50 [2]: 29.1 µM [rising, single point]

COc1ccc(CCC(=O)NCC2CCCCC2)cc1OC
cell number change: 22.3%
AC50 [1]: 0.00517 µM [rising, full curve, poor fit]

CN(Cc1ccccc1)C(=O)Cn1cccc1C(=O)c1ccccc1
cell number change: -40.1%
AC50 [1]: 3.26 µM [falling, partial curve]
AC50 [2]: 1.84 µM [falling, full curve]

O=C(CSc1nc(-c2cccs2)cc(C(F)(F)F)n1)NCc1ccccc1
cell number change: 21.7%
AC50 [1]: 0.0184 µM [rising, full curve, poor fit]
AC50 [2]: 2.91 µM [rising, partial curve, poor fit]
